Reference: PMC7786100
These are yes or no findings as the source states them, for the method shown. In cells and extracts the contact can be indirect. Binding calls can cover weak binding; strength is not graded here.

The chains behind the UniProt entries cited, without tags or fusion partners. Where a name states a change or a piece, a line headed by the entry shows the natural chain unless it says otherwise.
UniProt P63277: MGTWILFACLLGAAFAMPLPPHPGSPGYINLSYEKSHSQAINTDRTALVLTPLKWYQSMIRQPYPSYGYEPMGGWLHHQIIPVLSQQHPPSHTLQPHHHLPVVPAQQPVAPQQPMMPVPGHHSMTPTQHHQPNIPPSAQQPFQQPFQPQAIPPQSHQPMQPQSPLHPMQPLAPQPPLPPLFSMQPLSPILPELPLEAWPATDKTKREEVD

Experiments:
[1] = target: T1, Recombinant mouse Ambn (ameloblastin) (mouse) (UniProt O55189); experiment: co-IP; Pierce co-IP kit; 10 μg anti-Ambn antibody (AF3026) coupled to resin, 10 μg rAmbn bait bound overnight at 4°C, washed with Dulbecco's PBS, 10 μg prey (rAmel) bound 4 h at 4°C; eluate read by Western blot; both purified
T1 sequence: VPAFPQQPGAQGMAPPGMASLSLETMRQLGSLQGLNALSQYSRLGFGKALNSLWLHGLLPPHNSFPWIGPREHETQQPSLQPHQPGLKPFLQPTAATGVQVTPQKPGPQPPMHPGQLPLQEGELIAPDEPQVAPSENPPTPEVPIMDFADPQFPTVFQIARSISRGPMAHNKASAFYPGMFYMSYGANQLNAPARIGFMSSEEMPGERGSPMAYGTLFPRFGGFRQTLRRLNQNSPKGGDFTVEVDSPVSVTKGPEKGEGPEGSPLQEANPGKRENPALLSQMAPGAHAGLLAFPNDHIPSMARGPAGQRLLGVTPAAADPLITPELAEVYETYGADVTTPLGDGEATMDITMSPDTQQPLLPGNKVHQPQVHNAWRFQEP

[2] = target: Recombinant mouse Amel (amelogenin) (mouse) (UniProt P63277); experiment: co-IP; Pierce co-IP kit; rAmel with rAmbn, rAmbnΔ6 or rAmbnΔ5 (Figure 2A); which protein was bait is not stated; 10 μg bait, 10 μg prey, 4°C; eluate read by Western blot; both purified
[3] = target: Recombinant mouse Amel (amelogenin) (mouse) (UniProt P63277); experiment: co-IP; Pierce co-IP kit; 10 μg anti-Amel antibody coupled to resin, 10 μg rAmel bait bound overnight at 4°C, washed with Dulbecco's PBS, 10 μg prey (rAmbn) bound 4 h at 4°C; eluate read by Western blot; both purified

With “Recombinant mouse Amel (amelogenin) (from UniProt P63277-1)” the binding [1] was “binds”.

B1: Recombinant mouse Ambn (ameloblastin) (protein, UniProt O55189 27-407)
chain: VPAFPQQPGAQGMAPPGMASLSLETMRQLGSLQGLNALSQYSRLGFGKALNSLWLHGLLPPHNSFPWIGPREHETQQPSLQPHQPGLKPFLQPTAATGVQVTPQKPGPQPPMHPGQLPLQEGELIAPDEPQVAPSENPPTPEVPIMDFADPQFPTVFQIARSISRGPMAHNKASAFYPGMFYMSYGANQLNAPARIGFMSSEEMPGERGSPMAYGTLFPRFGGFRQTLRRLNQNSPKGGDFTVEVDSPVSVTKGPEKGEGPEGSPLQEANPGKRENPALLSQMAPGAHAGLLAFPNDHIPSMARGPAGQRLLGVTPAAADPLITPELAEVYETYGADVTTPLGDGEATMDITMSPDTQQPLLPGNKVHQPQVHNAWRFQEP
B1 was tested, and the binding [2] was “binds” and the binding [3] was “binds”.

B2: Recombinant mouse Ambn mutant with deletion of exon 6 (Ambn p.P104_V168del) (protein, UniProt O55189)
chain: VPAFPQQPGAQGMAPPGMASLSLETMRQLGSLQGLNALSQYSRLGFGKALNSLWLHGLLPPHNSFPWIGPREHETQQVPIMDFADPQFPTVFQIARSISRGPMAHNKASAFYPGMFYMSYGANQLNAPARIGFMSSEEMPGERGSPMAYGTLFPRFGGFRQTLRRLNQNSPKGGDFTVEVDSPVSVTKGPEKGEGPEGSPLQEANPGKRENPALLSQMAPGAHAGLLAFPNDHIPSMARGPAGQRLLGVTPAAADPLITPELAEVYETYGADVTTPLGDGEATMDITMSPDTQQPLLPGNKVHQPQVHNAWRFQEP
In the case of B2, the binding [2] is reported as “binds”.

B3: Recombinant mouse Ambn mutant with deletion of exon 5 (Ambn p.Y67_Q103del) (protein, UniProt O55189)
chain: VPAFPQQPGAQGMAPPGMASLSLETMRQLGSLQGLNALSQPSLQPHQPGLKPFLQPTAATGVQVTPQKPGPQPPMHPGQLPLQEGELIAPDEPQVAPSENPPTPEVPIMDFADPQFPTVFQIARSISRGPMAHNKASAFYPGMFYMSYGANQLNAPARIGFMSSEEMPGERGSPMAYGTLFPRFGGFRQTLRRLNQNSPKGGDFTVEVDSPVSVTKGPEKGEGPEGSPLQEANPGKRENPALLSQMAPGAHAGLLAFPNDHIPSMARGPAGQRLLGVTPAAADPLITPELAEVYETYGADVTTPLGDGEATMDITMSPDTQQPLLPGNKVHQPQVHNAWRFQEP
With B3 the binding [2] was “no binding (tested: 10 μg prey protein)”.
